Measurements from patent US10941139B2 (priority 2015, dated 2021).

Experiment: general procedure: solution-phase peptide synthesis; HATU/HOAt/DIEA; EDC/HOBt
Conditions: conjugation step

(S)-2-amino-N—((S)-1-((4-((2R,3R)-3-((S)-1-((3S,10R,16S,E)-10-(3-chloro-4-methoxybenzyl)-3-isobutyl-6,6-dimethyl-2,5,9,12-tetraoxo-1-oxa-4,8,11-triazacyclohexadec-13-en-16-yl)ethyl)oxiran-2-yl)benzyl)amino)-1-oxopropan-2-yl)-3-methylbutanamide
conjugation yield: 45%
